Results are given in words; binding and its absence hold for the method and conditions named. In cells and extracts the contact can be indirect. Sequences can lack the tags named with a protein.
Molecular target: Flag-tagged p65/RelA truncation D2 (TAD domain)
Assay: co-IP; extracts of HEK293T cells co-transfected with two tagged constructs, harvested 24 h after transfection; immunoprecipitation (anti-Flag in Fig. 5D and 5F) and immunoblot for the other tag; beads washed six times with low-salt lysis buffer (50 mM Hepes pH 7.5, 150 mM NaCl, 1 mM EDTA, 1.5 mM MgCl2, 10% glycerol, 1% Triton X-100)

B1: Myc-tagged LRRC25 (protein, UniProt Q8N386 21-305)
chain: LEPSCTVSSADVDWNAEFSATCLNFSGLSLSLPHNQSLRASNVILLDLSGNGLRELPVTFFAHLQKLEVLNVLRNPLSRVDGALAARCDLDLQADCNCALESWHDIRRDNCSGQKPLLCWDTTSSQHNLSAFLEVSCAPGLASATIGAVVVSGCLLLGLAIAGPVLAWRLWRCRVARSRELNKPWAAQDGPKPGLGLQPRYGSRSAPKPQVAVPSCPSTPDYENMFVGQPAAEHQWDEQGAHPSEDNDFYINYKDIDLASQPVYCNLQSLGQAPMDEEEYVIPGH
binding: no binding

— PMC5647368
